# Measurements taken from the supplement of paper PMC8728848.
# The list shows a part of the results.
# B1: XTP3-B-MRH1 (Homo sapiens), Q96DZ1 (protein)
# chain: LLEPLFKQSSCSYRIESYWTYEVCHGKHIRQYHEEKETGQKINIHEYYLGNMLAKNLLFEKEREAEEKEKSNEIPTKNIEGQMTPYYPVGMGNGTPCSLKQNRPRSSTVMYICHPESKHEILSVAEVTTCEYEVVILTPLLCSHPKYRFRA
# Assays:
# Test in all cases: glycan array binding signal (z-score within array); higher = stronger binding
# Conditions in all cases: glycan notation: IUPAC condensed, linker removed
# [1] = biological target: Neu5Ac(a2-3)Gal(b1-4)GlcNAc(b1-2)Man(a1-3)[Neu5Ac(a2-6)Gal(b1-4)GlcNAc(b1-2)Man(a1-6)]Man(b1-4)GlcNAc(b1-4)GlcNAc
# Procedure, shortened: (§1)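 Arrays were curated from the Consortium for Functional Glycomics database, 3228 in total, and kept only where the protein sequence was available. Binding is expressed as a within-array Z-score. This score was averaged across arrays of the same protein sequence at different concentrations or buffers and across linkers, and negative values can be read as non-binding.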
# [2] = biological target: Neu5Ac(a2-3)Gal(b1-4)GlcNAc(b1-2)[Neu5Ac(a2-3)Gal(b1-4)GlcNAc(b1-4)]Man(a1-3)[GlcNAc(b1-4)][Neu5Ac(a2-3)Gal(b1-4)GlcNAc(b1-2)[Neu5Ac(a2-3)Gal(b1-4)GlcNAc(b1-6)]Man(a1-6)]Man(b1-4)GlcNAc(b1-4)GlcNAc
# Procedure, shortened: as §1
# [3] = biological target: Neu5Ac(a2-3)Gal(b1-4)GlcNAc(b1-2)[Neu5Ac(a2-3)Gal(b1-4)GlcNAc(b1-4)]Man(a1-3)[GlcNAc(b1-4)][Neu5Ac(a2-3)Gal(b1-4)GlcNAc(b1-4)Man(a1-6)]Man(b1-4)GlcNAc(b1-4)GlcNAc
# Procedure, shortened: as §1
# [4] = biological target: Neu5Ac(a2-3)Gal(b1-4)GlcNAc(b1-2)[Neu5Ac(a2-3)Gal(b1-4)GlcNAc(b1-6)]Man(a1-6)[Neu5Ac(a2-3)Gal(b1-4)GlcNAc(b1-2)Man(a1-3)][GlcNAc(b1-4)]Man(b1-4)GlcNAc(b1-4)GlcNAc
# Procedure, shortened: as §1
# [5] = biological target: Neu5Ac(a2-3)Gal(b1-4)GlcNAc(b1-3)Gal
# Procedure, shortened: as §1
# [6] = biological target: Neu5Ac(a2-3)Gal(b1-4)GlcNAc(b1-3)Gal(b1-3)GlcNAc
# Procedure, shortened: as §1
# [7] = biological target: Neu5Ac(a2-3)Gal(b1-4)GlcNAc(b1-3)Gal(b1-4)GlcNAc
# Procedure, shortened: as §1
# [8] = biological target: Neu5Ac(a2-3)Gal(b1-4)GlcNAc(b1-3)Gal(b1-4)GlcNAc(b1-2)Man(a1-3)[Neu5Ac(a2-3)Gal(b1-4)GlcNAc(b1-3)Gal(b1-4)GlcNAc(b1-2)Man(a1-6)]Man(b1-4)GlcNAc(b1-4)GlcNAc
# Procedure, shortened: as §1
# [9] = biological target: Neu5Ac(a2-3)Gal(b1-4)GlcNAc(b1-3)Gal(b1-4)GlcNAc(b1-3)Gal(b1-4)GlcNAc
# Procedure, shortened: as §1
# [10] = biological target: Neu5Ac(a2-3)Gal(b1-4)GlcNAc(b1-3)Gal(b1-4)GlcNAc(b1-3)Gal(b1-4)GlcNAc(b1-2)Man(a1-3)[Neu5Ac(a2-3)Gal(b1-4)GlcNAc(b1-3)Gal(b1-4)GlcNAc(b1-3)Gal(b1-4)GlcNAc(b1-2)Man(a1-6)]GalNAc
# Procedure, shortened: as §1
# [11] = biological target: Neu5Ac(a2-3)Gal(b1-4)GlcNAc(b1-3)Gal(b1-4)GlcNAc(b1-3)GalNAc
# Procedure, shortened: as §1
# [12] = biological target: Neu5Ac(a2-3)Gal(b1-4)GlcNAc(b1-3)Gal(b1-4)GlcNAc(b1-3)[Neu5Ac(a2-3)Gal(b1-4)GlcNAc(b1-3)Gal(b1-4)GlcNAc(b1-6)]GalNAc
# Procedure, shortened: as §1
# [13] = biological target: Neu5Ac(a2-3)Gal(b1-4)GlcNAc(b1-3)Gal(b1-4)GlcNAc(b1-6)[Gal(b1-3)]GalNAc
# Procedure, shortened: as §1
# [14] = biological target: Neu5Ac(a2-3)Gal(b1-4)GlcNAc(b1-3)Gal(b1-4)[Fuc(a1-3)]GlcNAc
# Procedure, shortened: as §1
# [15] = biological target: Neu5Ac(a2-3)Gal(b1-4)GlcNAc(b1-3)GalNAc
# Procedure, shortened: as §1
# [16] = biological target: Neu5Ac(a2-3)Gal(b1-4)GlcNAc(b1-3)[Neu5Ac(a2-3)Gal(b1-4)GlcNAc(b1-6)]GalNAc
# Procedure, shortened: as §1
# [17] = biological target: Neu5Ac(a2-3)Gal(b1-4)GlcNAc(b1-6)GalNAc
# Procedure, shortened: as §1
# [18] = biological target: Neu5Ac(a2-3)Gal(b1-4)GlcNAc(b1-6)[Gal(b1-3)]GalNAc
# Procedure, shortened: as §1
# [19] = biological target: Neu5Ac(a2-3)Gal(b1-4)GlcNAc(b1-6)[Neu5Ac(a2-3)Gal(b1-3)]GalNAc
# Procedure, shortened: as §1
# [20] = biological target: Neu5Ac(a2-3)Gal(b1-4)GlcNAc6S
# Procedure, shortened: as §1
# [21] = biological target: Neu5Ac(a2-3)Gal(b1-4)[Fuc(a1-3)]GlcNAc
# Procedure, shortened: as §1
# [22] = biological target: Neu5Ac(a2-3)Gal(b1-4)[Fuc(a1-3)]GlcNAc(b1-2)Man
# Procedure, shortened: as §1
binder,measurement,setting,value
B1,glycan array binding signal (z-score),[1],-0.2
same,glycan array binding signal (z-score),[2],0.532
same,glycan array binding signal (z-score),[3],0.489
same,glycan array binding signal (z-score),[4],-1.57
same,glycan array binding signal (z-score),[5],-1.01
same,glycan array binding signal (z-score),[6],0.736
same,glycan array binding signal (z-score),[7],-1.44
same,glycan array binding signal (z-score),[8],-0.403
same,glycan array binding signal (z-score),[9],-0.612
same,glycan array binding signal (z-score),[10],1.63
same,glycan array binding signal (z-score),[11],3.41
same,glycan array binding signal (z-score),[12],0.67
same,glycan array binding signal (z-score),[13],0.566
same,glycan array binding signal (z-score),[14],-0.425
same,glycan array binding signal (z-score),[15],-0.349
same,glycan array binding signal (z-score),[16],0.882
same,glycan array binding signal (z-score),[17],-1.22
same,glycan array binding signal (z-score),[18],0.048
same,glycan array binding signal (z-score),[19],0.576
same,glycan array binding signal (z-score),[20],1.4
same,glycan array binding signal (z-score),[21],-0.083
same,glycan array binding signal (z-score),[22],-1.1

# A second format for some results above.
binder	measurement	setting	value
B1	glycan array binding signal (z-score)	[6]	0.736
same	glycan array binding signal (z-score)	[11]	3.41
